For at least one entry, the source does not settle the construct or the ends of the probe. For part of these data: No signal at the amounts used counts as a negative. For part of these data: Where a protein sequence is shown, tags need not be part of it.
Key:
FLAG-GATA3 [1] = target: FLAG-GATA3 (UniProt P23771); assay: AlphaScreen; conditions: AlphaScreen: 100 mM Tris-HCl pH 8.0, 150 mM NaCl, 0.1% Tween 20, 1 mg/mL BSA, 26 C, 1 h, protein translated in vitro, protein details: N-terminal FLAG, label: 5'-biotin
FLAG-GATA3 [2] = target: FLAG-GATA3 (UniProt P23771); assay: competition with a labelled probe; conditions: AlphaScreen, EMSA: 4 C, 20 min, 4% polyacrylamide gel, protein translated in vitro, protein details: N-terminal FLAG
FLAG-GATA1 = FLAG-GATA1 (UniProt P15976); assay: AlphaScreen; conditions: 150 mM NaCl; AlphaScreen: 100 mM Tris-HCl pH 8.0, 150 mM NaCl, 0.1% Tween 20, 1 mg/mL BSA, 26 C, 1 h; protein translated in vitro; protein details: FLAG; label: 5'-biotin
FLAG-GATA2 = target: T1, FLAG-GATA2 (UniProt P23769); assay: AlphaScreen; conditions: 150 mM NaCl, inhibited by pyrrothiogatain, IC50 about 50 uM; AlphaScreen: 100 mM Tris-HCl pH 8.0, 150 mM NaCl, 0.1% Tween 20, 1 mg/mL BSA, 26 C, 1 h; protein translated in vitro; protein details: FLAG; label: 5'-biotin
T1 sequence (looked up, limits assumed): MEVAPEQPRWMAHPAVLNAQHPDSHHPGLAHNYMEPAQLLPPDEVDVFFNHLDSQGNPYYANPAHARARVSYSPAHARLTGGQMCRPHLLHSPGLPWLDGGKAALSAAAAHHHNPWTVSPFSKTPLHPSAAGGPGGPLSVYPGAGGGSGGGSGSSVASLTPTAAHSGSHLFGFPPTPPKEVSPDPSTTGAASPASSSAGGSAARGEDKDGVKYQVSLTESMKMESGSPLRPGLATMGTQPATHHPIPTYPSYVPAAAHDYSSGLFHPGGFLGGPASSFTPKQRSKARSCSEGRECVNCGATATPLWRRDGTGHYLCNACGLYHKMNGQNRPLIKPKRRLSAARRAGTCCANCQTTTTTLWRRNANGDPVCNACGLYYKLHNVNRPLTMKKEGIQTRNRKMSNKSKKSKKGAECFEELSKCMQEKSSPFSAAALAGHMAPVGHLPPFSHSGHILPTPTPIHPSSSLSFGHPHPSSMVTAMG

Amino acid sequences for entries named in this document (tags omitted). A change or cut given only in a name is not applied to a line headed by its entry.
UniProt P23771: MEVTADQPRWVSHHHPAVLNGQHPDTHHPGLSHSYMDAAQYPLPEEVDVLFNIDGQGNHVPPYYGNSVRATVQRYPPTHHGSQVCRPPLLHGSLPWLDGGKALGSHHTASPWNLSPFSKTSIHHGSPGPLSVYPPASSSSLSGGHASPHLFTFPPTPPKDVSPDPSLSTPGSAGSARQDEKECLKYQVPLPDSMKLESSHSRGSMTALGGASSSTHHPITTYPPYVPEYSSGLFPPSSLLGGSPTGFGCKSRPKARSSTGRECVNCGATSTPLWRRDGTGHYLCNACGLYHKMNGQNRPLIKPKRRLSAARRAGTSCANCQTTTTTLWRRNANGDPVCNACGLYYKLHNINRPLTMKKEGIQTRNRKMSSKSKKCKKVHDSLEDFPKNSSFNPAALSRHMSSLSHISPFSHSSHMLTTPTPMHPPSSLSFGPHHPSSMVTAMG
UniProt P15976: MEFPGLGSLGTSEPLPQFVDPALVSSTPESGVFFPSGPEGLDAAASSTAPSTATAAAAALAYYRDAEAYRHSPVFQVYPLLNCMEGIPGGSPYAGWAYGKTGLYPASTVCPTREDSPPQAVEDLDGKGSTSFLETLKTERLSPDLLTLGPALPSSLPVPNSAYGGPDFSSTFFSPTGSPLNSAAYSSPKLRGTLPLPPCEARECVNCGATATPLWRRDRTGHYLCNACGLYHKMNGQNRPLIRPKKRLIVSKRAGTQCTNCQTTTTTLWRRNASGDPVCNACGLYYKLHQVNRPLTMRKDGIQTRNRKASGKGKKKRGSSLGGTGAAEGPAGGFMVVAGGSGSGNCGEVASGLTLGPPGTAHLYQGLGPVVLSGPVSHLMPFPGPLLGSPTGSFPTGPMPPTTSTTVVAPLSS
UniProt P43694: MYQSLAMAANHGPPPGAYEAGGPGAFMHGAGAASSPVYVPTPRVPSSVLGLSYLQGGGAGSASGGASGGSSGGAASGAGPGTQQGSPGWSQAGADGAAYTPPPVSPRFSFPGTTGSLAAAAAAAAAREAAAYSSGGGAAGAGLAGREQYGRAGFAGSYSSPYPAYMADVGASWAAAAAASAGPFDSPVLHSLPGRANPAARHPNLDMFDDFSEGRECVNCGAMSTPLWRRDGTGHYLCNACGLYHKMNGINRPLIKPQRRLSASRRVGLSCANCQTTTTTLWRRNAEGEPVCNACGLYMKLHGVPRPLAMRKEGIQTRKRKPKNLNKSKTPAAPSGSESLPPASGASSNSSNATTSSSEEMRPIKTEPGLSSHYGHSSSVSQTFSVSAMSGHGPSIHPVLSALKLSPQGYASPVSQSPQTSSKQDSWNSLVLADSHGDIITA
UniProt Q9BWX5: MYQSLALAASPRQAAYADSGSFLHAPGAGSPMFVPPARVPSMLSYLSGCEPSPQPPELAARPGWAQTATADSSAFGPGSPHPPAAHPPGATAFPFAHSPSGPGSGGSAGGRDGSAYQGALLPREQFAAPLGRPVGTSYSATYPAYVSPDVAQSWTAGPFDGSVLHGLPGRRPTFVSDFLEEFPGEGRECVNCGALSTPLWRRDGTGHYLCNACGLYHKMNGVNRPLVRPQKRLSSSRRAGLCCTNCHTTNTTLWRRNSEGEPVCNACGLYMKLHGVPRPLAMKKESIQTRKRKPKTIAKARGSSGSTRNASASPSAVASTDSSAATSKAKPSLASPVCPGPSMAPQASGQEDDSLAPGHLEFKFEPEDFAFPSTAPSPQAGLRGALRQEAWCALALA

FLAG-GATA4 = FLAG-GATA4 (UniProt P43694); assay: AlphaScreen; conditions: 150 mM NaCl, inhibited by pyrrothiogatain, IC50 about 50 uM; AlphaScreen: 100 mM Tris-HCl pH 8.0, 150 mM NaCl, 0.1% Tween 20, 1 mg/mL BSA, 26 C, 1 h; protein translated in vitro; protein details: FLAG; label: 5'-biotin
FLAG-GATA5 = FLAG-GATA5 (UniProt Q9BWX5); assay: AlphaScreen; conditions: 150 mM NaCl, inhibited by pyrrothiogatain, IC50 about 50 uM; AlphaScreen: 100 mM Tris-HCl pH 8.0, 150 mM NaCl, 0.1% Tween 20, 1 mg/mL BSA, 26 C, 1 h; protein translated in vitro; protein details: FLAG; label: 5'-biotin

CACTTCTTAACAGAAAGTCTTAACTCT (double strand) [MT (GATA-site mutant, biotin)]
binding result (FLAG-GATA3 [1]; 150 mM NaCl, signal at background): no binding | binding result (FLAG-GATA3 [1]; 100 and 125 mM NaCl, considerable non-specific signal): binds

CACTTCTTAACAGAAAGTCTTAACTCT (double strand) [mutant DNA, non-labelled competitor]
binding result (FLAG-GATA3 [2]; vs 4 nM N1, 150 mM NaCl): no binding

CACTTGATAACAGAAAGTGATAACTCT (double strand) [GATA3 consensus DNA (biotin)]
binding result (FLAG-GATA1): no binding | binding result (FLAG-GATA2): binds | binding result (FLAG-GATA3 [1]; 150 mM NaCl): binds | binding result (FLAG-GATA4): binds | binding result (FLAG-GATA5): binds

CACTTGATAACAGAAAGTGATAACTCT (double strand) [GATA consensus DNA, non-labelled]
binding result (FLAG-GATA3 [2]; vs 4 nM N1, 0-250 nM competitor, 150 mM NaCl): binds

From publication PMC6874683, “Pyrrothiogatain acts as an inhibitor of GATA family proteins and inhibits Th2 cell differentiation in vitro” (Scientific Reports, 2019)
